From publication PMC3143151
Results are given in words; binding and its absence hold for the method and conditions named.

What was measured:
human C17-V5H8 (human) [1] = target: human C17-V5H8 (human) (UniProt Q9NRR1); experiment: SEC; affinity-purified human C17-V5H8 loaded; A280 nm elution profile against marker proteins; both purified
human C17-V5H8 (human) [2] = target: human C17-V5H8 (human) (UniProt Q9NRR1); experiment: SDS-PAGE under reducing and non-reducing conditions; purified human C17-V5H8, reducing and non-reducing loading conditions, Coomassie staining; both purified

B1: human C17-V5H8 (protein, UniProt Q9NRR1 23-136)
chain: TPPTCYSRMRALSQEITRDFNLLQVSEPSEPCVRYLPRLYLDIHNYCVLDKLRDFVASPPCWKVAQVDSLKDKARKLYTIMNSFCRRDLVFLLDDCNALEYPIPVTTVLPDRQR
B1 was tested, and the binding (human C17-V5H8 (human) [1]) was “no binding” and the binding (human C17-V5H8 (human) [2]) was “no binding”.
